Some of the results follow. The main result of the screen is listed elsewhere. These columns were measured beside it and carry no call. Most of these compounds were active or inconclusive in the main read-out, so they are no random draw. Potencies come from curve fits of mixed quality, noted in brackets.
Assay: qHTS Assay for Lipid Storage Modulators in Drosophila S3 Cells;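 for cell number change: cells counted by Cell Tracker Red CMTPX staining in the red channel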
Conditions: BODIPY lipid droplet fluorescence, 18-24 h; for cell number change: measured here: cell count max response, cells fed with added oleic acid
How it was run: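 Drosophila S3 cells got compounds at several concentrations plus oleic acid (400 uM solution). Laser-scanning cytometry with 488 nm excitation read lipid droplets at 500-530 nm and cells at 575-640 nm. Percent activity was relative to 20 uM Triacsin C.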

[1] = measured here: lipid fluorescence (Fed channel) AC50, cells fed with added oleic acid
[2] = measured here: cell number channel AC50, cells fed with added oleic acid

Compound | cell number change [%] | AC50 [1] | AC50 [2]
Cc1cccc(C(=O)NNC(=O)c2ccc(O)cc2)c1 | -20.4 | 0.13 µM [falling, full curve, poor fit] | –
O=c1[nH]c2ccccc2nc1/C=C/c1ccc(Cl)cc1 | 7.64 | 0.651 µM [rising, single point] | –
CCCn1c(N)c(NCCN2CCOCC2)c(=O)n(CC(=O)NCc2ccccc2)c1=O | -10.4 | 6.51 µM [falling, single point] | –
CCc1cc2c(nc1CC)CCN(CC/C(C)=N/OC[C@H]1O[C@H](c3ccccc3)C=C[C@@H]1Oc1ccc(OC)cc1)C2 | -18.3 | 2.59 µM [rising, single point] | –
O=C1CC(Sc2ncn[nH]2)C(=O)N1c1ccccc1 (stereo not given) | -35.1 | 23.1 µM [falling, partial curve] | 6.51 µM [falling, full curve, poor fit]
O=C(CNc1cccc(S(=O)(=O)N2CCCC2)c1)Nc1ccc(C(F)(F)F)cc1 | -33.4 | – | 0.0116 µM [falling, full curve, poor fit]
COc1ccccc1C(=O)NCC(=O)NCCC(c1ccccc1)c1ccccc1 | -19 | 0.92 µM [falling, full curve, poor fit] | –
Cc1cc(Br)c(NC(=O)Cn2c([N+](=O)[O-])cnc2C)cc1C | -2.84 | 3.66 µM [rising, single point] | –
CC(c1ccccc1)N1CC(C(=O)N2CCN(c3ccc(F)cc3)CC2)CC1=O (stereo not given) | 4.86 | 6.51 µM [falling, single point] | –
CCn1nc(NC(=O)C(C)C)c2cc3cccc(C)c3nc21 | 6.97 | 2.31 µM [falling, partial curve] | –
O=C(COC(=O)CCc1nc2ccccc2s1)Nc1cccc(S(=O)(=O)N2CCOCC2)c1 | -8.69 | 20.6 µM [rising, single point] | –
COc1ccccc1CCN1C(=S)NC(C)(C)CC1(C)O (stereo not given) | 38.5 | – | 18.4 µM [rising, single point]
Cc1oc(C(C)(C)C)c(CN2CCCC2)c1C(=O)O | -19.4 | 29.1 µM [falling, single point] | –
O=C(NCCc1ccccc1)c1c(F)c(F)c(F)c(F)c1F | -4 | 0.58 µM [falling, full curve] | –
Nc1o[nH]c(=O)c1Cc1ccccc1 | 11.4 | 2.91 µM [rising, single point] | –
O=C(Cn1ncc2c(=O)oc3ccccc3c21)NC1CC1 | 36.1 | – | 20.6 µM [rising, single point]
CCOCCCN(C(=O)Cn1nnc(-c2ccc(C)o2)n1)C(C(=O)NC1CCCC1)c1ccco1 (stereo not given) | -6.58 | – | –
COc1ccc(-c2nn(CC(=O)N(C)C)c(=O)c3ccccc23)cc1 | 15.3 | 0.411 µM [rising, single point] | –
CSc1ccccc1NC(=O)c1cc(-c2cccnc2)nc2ccc(Br)cc12 | -28.3 | 29.1 µM [falling, single point] | –
Cc1cc(C)c2[nH]c(=O)c(CN(Cc3ccco3)C(=S)NCC3CCCO3)cc2c1 (stereo not given) | 26.3 | 0.411 µM [rising, full curve] | –

Compound | cell number change [%] | AC50 [1] | AC50 [2]
Cc1cc(C)c(OCCNC(=O)c2ccccc2Sc2ccccc2C#N)c(C)c1 | 13.3 | 1.16 µM [falling, single point] | –
C=CCOc1ccc(/C=C2/C(=N)N3N=C(CC(=O)N4CCCC4)SC3=NC2=O)cc1OC | -13.1 | 29.1 µM [falling, single point] | –
COc1ccc(/C=C2\C(=O)ON=C2c2ccccc2)cc1 | -24.2 | 32.6 µM [falling, single point] | –
CCCOc1ccc(C(=O)NC(=S)Nc2nc3ccccc3s2)cc1 | -6.9 | – | –
Cc1ccc(S(=O)(=O)/N=C(/Nc2ccc3[nH]c(=O)[nH]c3c2)c2ccc(F)cc2)cc1 | 8.92 | – | –
COC(=O)C1=C(C(=O)OC)[C@@H]2Nc3ccccc3[C@@]23C[C@@H](C(=O)OC)N(C(=O)c2ccc(Br)cc2)C3=N1 | -6.22 | 6.51 µM [falling, single point] | –
CCCc1cc2c(cc1NS(=O)(=O)c1ccc(CCNC(C)=O)cc1)OCO2 | -24.6 | 13 µM [falling, partial curve, poor fit] | –
Cc1nc(-c2cccc(S(=O)(=O)N3CCCC(C)C3)c2)cs1 (stereo not given) | -14.5 | – | –
CN(c1ccccc1)S(=O)(=O)c1cccc(C(=O)OCC(=O)NCCCN2CCCC2=O)c1 | – | 6.51 µM [rising, partial curve, poor fit] | –
CCCCN(C(=O)C(C)(C)Oc1ccc(Cl)cc1)c1c(N)n(CCC)c(=O)[nH]c1=O | -15 | 10.3 µM [falling, partial curve] | –
COc1ccc(NC(=O)c2cc(S(=O)(=O)N3CCCC3)cn2C)cc1Cl | 12.7 | 4.11 µM [falling, full curve] | –
CCOC(=O)c1ccc(NC(=O)c2cn(-c3ccccc3)nc2-c2ccncc2)cc1 | -2.73 | – | –
Cc1cc(C)cc(NC(=O)CN2CCc3ccccc3C2)c1 | -33.5 | 16.4 µM [falling, single point] | 29.1 µM [falling, single point]
N#CC1=C(N)SC(N)=C(C#N)C1Cc1ccccc1 | 52.3 | 29.1 µM [rising, single point] | 23.1 µM [rising, single point]
CCOC(=O)Cn1c(=N)n(CCOc2ccc3ccccc3c2)c2ccccc21 | 21.7 | 5.8 µM [rising, single point] | –
COc1ccc(NC(=O)Nc2ccc(F)c(F)c2)c(OC)c1 | -7.68 | 0.231 µM [falling, full curve, poor fit] | –
CCOC(=O)c1c(C)[nH]c(C(=O)OCC(=O)N(CC(C)C)C2CCS(=O)(=O)C2)c1C (stereo not given) | 2.27 | 0.82 µM [rising, single point] | –
Cc1nc(C)c2c(c1C(F)(F)F)-c1ccccc1C2(F)F | 0.875 | – | –
O=S(=O)(NC1CCCCC1N1CCCCC1)c1ccccc1 (stereo not given) | 48.6 | – | –
CN(C)Cc1c(C(=O)Nc2ccccc2)[nH]c2ccccc12 | 15.6 | 9.2 µM [rising, partial curve] | –

A few values from the results shown:
For AC50 [2], Cc1cc(C)cc(NC(=O)CN2CCc3ccccc3C2)c1 has the entry 29.1 µM [falling, single point]
For AC50 [1], C=CCOc1ccc(/C=C2/C(=N)N3N=C(CC(=O)N4CCCC4)SC3=NC2=O)cc1OC has the entry 29.1 µM [falling, single point]
